Results deposited as PubChem BioAssay AID1224830 (NIAID, 2016)

Assay: 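Host factors that control LPS-induced TNF expression in human macrophages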 (primary screen)
Cell system: human THP-1 monocytic leukaemia cells, TNF dual-luciferase reporter clone, PMA-differentiated to macrophage-like cells
Knock-down reagent: siRNA pool against human genes, 50 nM
Timing: LPS for 4 h, given about 3 days after siRNA transfection
Treatment: bacterial LPS (TLR4 ligand), 10 ng/ml
Detection: 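TNF firefly reporter luminescence divided by renilla, normalised to the plate median, then turned into a robust z-score for each replicate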
Direction: TNF reporter robust z-score: higher = stronger TNF reporter response to LPS
Hit rule: 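Each well counts as active if its z-score is over 2.8 or under -1.5; controls are left without a call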
The deposit covers about 18,000 reagents; shown is an unselected part. Over the whole deposit, about 2,900 (16%) are marked active. 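Calls are made per well; low scores hint the gene aids the LPS response, high scores that it dampens it.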 Repeated entries: four replicate wells of each siRNA pool.

gene	TNF reporter robust z-score	outcome
ADGRE1 (GeneID 2015)	0.5	inactive
ADGRE1 (GeneID 2015)	-0.06	inactive
ADGRE1 (GeneID 2015)	0.42	inactive
ADGRE1 (GeneID 2015)	0.08	inactive
BBC3 (GeneID 27113)	2	inactive
BBC3 (GeneID 27113)	3.05	active
BBC3 (GeneID 27113)	1.69	inactive
BBC3 (GeneID 27113)	0.91	inactive
HSF2 (GeneID 3298)	-0.49	inactive
HSF2 (GeneID 3298)	0.21	inactive
HSF2 (GeneID 3298)	0.04	inactive
HSF2 (GeneID 3298)	0.22	inactive
C9orf50 (GeneID 375759)	-0.56	inactive
C9orf50 (GeneID 375759)	-0.34	inactive
C9orf50 (GeneID 375759)	-0.7	inactive
C9orf50 (GeneID 375759)	-0.42	inactive
FBXO45 (GeneID 200933)	2.14	inactive
FBXO45 (GeneID 200933)	0.5	inactive
FBXO45 (GeneID 200933)	0.82	inactive
FBXO45 (GeneID 200933)	1.46	inactive
GPR155 (GeneID 151556)	0.76	inactive
GPR155 (GeneID 151556)	1.04	inactive
GPR155 (GeneID 151556)	0.36	inactive
GPR155 (GeneID 151556)	1.81	inactive
RIN1 (GeneID 9610)	2.64	inactive
RIN1 (GeneID 9610)	-0.48	inactive
RIN1 (GeneID 9610)	0.14	inactive
RIN1 (GeneID 9610)	-1.07	inactive
COL6A1 (GeneID 1291)	-0.83	inactive
COL6A1 (GeneID 1291)	-0.6	inactive
COL6A1 (GeneID 1291)	-0.84	inactive
COL6A1 (GeneID 1291)	0	inactive
SPAG5 (GeneID 10615)	-2.06	active
SPAG5 (GeneID 10615)	-1.62	active
SPAG5 (GeneID 10615)	-1.98	active
SPAG5 (GeneID 10615)	-1.55	active
PDE7A (GeneID 5150)	-0.68	inactive
PDE7A (GeneID 5150)	-0.7	inactive
PDE7A (GeneID 5150)	0.65	inactive
PDE7A (GeneID 5150)	-0.65	inactive
PTGIR (GeneID 5739)	-1.43	inactive
PTGIR (GeneID 5739)	-0.63	inactive
PTGIR (GeneID 5739)	-1.18	inactive
PTGIR (GeneID 5739)	-1.16	inactive
VCPIP1 (GeneID 80124)	-0.06	inactive
VCPIP1 (GeneID 80124)	0.17	inactive
VCPIP1 (GeneID 80124)	-0.38	inactive
VCPIP1 (GeneID 80124)	0.06	inactive
ZFAND3 (GeneID 60685)	-0.94	inactive
ZFAND3 (GeneID 60685)	-0.29	inactive
ZFAND3 (GeneID 60685)	-1.27	inactive
ZFAND3 (GeneID 60685)	-0.08	inactive
DUSP5 (GeneID 1847)	-1.35	inactive
DUSP5 (GeneID 1847)	-0.9	inactive
DUSP5 (GeneID 1847)	-1.42	inactive
DUSP5 (GeneID 1847)	-1.08	inactive
CCDC122 (GeneID 160857)	0.2	inactive
CCDC122 (GeneID 160857)	-0.21	inactive
CCDC122 (GeneID 160857)	0.34	inactive
CCDC122 (GeneID 160857)	-0.43	inactive
DMRT3 (GeneID 58524)	-1.35	inactive
DMRT3 (GeneID 58524)	-1.03	inactive
DMRT3 (GeneID 58524)	-1.38	inactive
HERC6 (GeneID 55008)	-0.69	inactive
HERC6 (GeneID 55008)	0.18	inactive
HERC6 (GeneID 55008)	-0.17	inactive
HERC6 (GeneID 55008)	0.92	inactive
SERINC4 (GeneID 619189)	-0.28	inactive
SERINC4 (GeneID 619189)	0.19	inactive
SERINC4 (GeneID 619189)	-0.76	inactive
SERINC4 (GeneID 619189)	0.89	inactive
SSTR1 (GeneID 6751)	-1.49	inactive
SSTR1 (GeneID 6751)	0.01	inactive
SSTR1 (GeneID 6751)	-0.18	inactive
SSTR1 (GeneID 6751)	0.13	inactive
GLMN (GeneID 11146)	-0.04	inactive
GLMN (GeneID 11146)	0.94	inactive
GLMN (GeneID 11146)	0.75	inactive
GLMN (GeneID 11146)	0.58	inactive
ZBTB10 (GeneID 65986)	-0.04	inactive
ZBTB10 (GeneID 65986)	-0.6	inactive
ZBTB10 (GeneID 65986)	-0.52	inactive
ZBTB10 (GeneID 65986)	-0.47	inactive
B3GALNT1 (GeneID 8706)	-0.68	inactive
B3GALNT1 (GeneID 8706)	1.54	inactive
B3GALNT1 (GeneID 8706)	0.53	inactive
B3GALNT1 (GeneID 8706)	-0.11	inactive
CACNA2D1 (GeneID 781)	-0.47	inactive
CACNA2D1 (GeneID 781)	-1.1	inactive
CACNA2D1 (GeneID 781)	-1.36	inactive
CACNA2D1 (GeneID 781)	-1.06	inactive
ADCY4 (GeneID 196883)	0.88	inactive
ADCY4 (GeneID 196883)	-0.42	inactive
ADCY4 (GeneID 196883)	1.07	inactive
ADCY4 (GeneID 196883)	0.45	inactive
TMEM143 (GeneID 55260)	0.53	inactive
TMEM143 (GeneID 55260)	-0.04	inactive
TMEM143 (GeneID 55260)	0.34	inactive
TMEM143 (GeneID 55260)	-0.02	inactive
TERB2 (GeneID 145645)	-1.65	active
TERB2 (GeneID 145645)	-1.16	inactive
TERB2 (GeneID 145645)	-0.88	inactive
TERB2 (GeneID 145645)	-1.74	active
GRID2 (GeneID 2895)	0.13	inactive
GRID2 (GeneID 2895)	1.36	inactive
GRID2 (GeneID 2895)	1.43	inactive
GRID2 (GeneID 2895)	2.05	inactive
DNAJC6 (GeneID 9829)	1.14	inactive
DNAJC6 (GeneID 9829)	0.84	inactive
DNAJC6 (GeneID 9829)	0.44	inactive
DNAJC6 (GeneID 9829)	1.72	inactive

No new results follow: entries from further up.
gene	TNF reporter robust z-score	outcome
GPR155 (GeneID 151556)	1.04	inactive
GPR155 (GeneID 151556)	0.36	inactive
GPR155 (GeneID 151556)	1.81	inactive
RIN1 (GeneID 9610)	2.64	inactive
RIN1 (GeneID 9610)	-0.48	inactive
